{
  "source": "patent US6355608B1",
  "about": "“Detergent composition” (Shiseido Co., Ltd., priority 1998, dated 2002)",
  "key": {"[1]": {"test": "Foaming test with the shaking method", "type": "physicochemical", "details": "text summary of the foaming test, pH 7", "procedure": "0.5 wt % of each sample in Table 1 was dissolved in ion exchanged water with 70 ppm calcium chloride already dissolved in it. […] This solution was kept at 30° C. put into a Nessler's tube with an inner diameter of 3 cm and a height of 20 cm equipped with a sliding plug, and then tilted 90 degrees every second using a pendulum type shaker. After one minute, the sample was taken out of the shaker and the foam height, the foam film thickness and the foam density were measured. The time required for the foam height to be reduced to a half of the original height was also measured. The foam film thickness was measured by taking a photograph of the foam using a microscope at 100 times magnification and calculating the average value on the photograph. The foam density was obtained by sampling 10 ml of the foam and measuring its weight.\n0.5 wt % of each sample in Table 6 was dissolved in ion exchanged water with 70 ppm calcium chloride already dissolved in it. […] After one minute, the sample was taken out of the shaker and the foam height, the foam film thickness and the foam density were measured. The time required for the foam height to be reduced to a half of the original height was also measured. The foam film thickness was measured by taking a photograph of the foam using a microscope at 100 times magnification and calculating the average value on the photograph. […]"}, "[2]": {"test": "Lathering/foaming test: foam volume in a mixer with artificial dirt", "type": "physicochemical", "details": "mixtures of N-methyl taurate laurate and sodium laurate, total 100 mmol/L; 400 ml with 2g artificial dirt, stirred 60 seconds"}, "[3]": {"details": "when the concentration is 10% or more; known value; cited from earlier work"}},
  "note": "At least one compound was matched to its structure with a doubt left. Some compounds share one wording; it may come from a single statement.",
  "data": [
    {"smiles": "CCCCCCCCCCCC(=O)[O-].[Na+]", "note": "[Control sample 1, Sodium laurate]", "values": [
      {"measurement": "Foaming (in words)", "setting": "[1]", "value": "harder to foam"},
      {"measurement": "Lathering/foaming ability (foam volume, FIG. 6)", "setting": "[2]", "value": "unsatisfactory"},
      {"measurement": "Krafft point", "setting": "[3]", "value": "approximately 20 °C"}
    ]}
  ]
}
